PubChem BioAssay AID504764, Drosophila RNAi Screening Center – 2011

Screen: 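Knock-downs that raise or lower a Notch target reporter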 (primary screen)
Cells: Drosophila Kc167 cells
Reagents: long dsRNA against Drosophila genes
Duration: about 5 days (4 days dsRNA, then 24 h after transfection)
Conditions: transfection of constitutively active membrane-tethered Notch lacking the extracellular domain, read 24 h later
Measured: 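Light from a Notch-responsive E(spl)m3 luciferase reporter under active Notch, with control-promoter and no-Notch reporter wells to normalise; raw counts from paired wells a and b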
Scale: induced reporter light, run 1, well a and induced reporter light, run 1, well b: higher = more light from the Notch target reporter with active Notch; control promoter light, run 1, well a and control promoter light, run 1, well b: higher = more light from the viral control promoter (cell number, transfection, viability); uninduced reporter light, run 1, well a: higher = more light from the Notch target reporter without active Notch
Call rule: 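Hit if the duplicate-averaged log2 ratio of induced to control-promoter light gives a plate-wise z beyond ±2, or induced to uninduced beyond ±1.8; weak-control or discordant-duplicate wells dropped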
Calls: active = modifier hit (raised or lowered Notch signal); inactive = not a hit
The deposit covers about 22,000 reagents; below is a random part of those with a known target gene and a result. Over the whole deposit, 403 (1.9%) got an active call. 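Unnormalised raw counts per well; ratio z-scores behind the hit calls and whether each hit raises or lowers signal are not deposited.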 The numbers tell different reagents against one gene apart. No sequences are given here. The record does not give: the amount of reagent.

gene knocked down	reagent	induced reporter light, run 1, well a	induced reporter light, run 1, well b	control promoter light, run 1, well a	control promoter light, run 1, well b	uninduced reporter light, run 1, well a	activity call
Npc2f	1	1.67e5	1.92e5	2.06e5	2.23e5	15888	inactive
CG42715 (retired record)	1	77890	1.33e5	2.06e5	1.88e5	13525	inactive
Fdx2	1	52935	1.77e5	2.43e5	2.11e5	8765	inactive
CG5614	1	1.96e5	2.29e5	2.03e5	1.98e5	14510	inactive
Ect3	1	97365	1.53e5	1.22e5	1.21e5	6382	inactive
upSET	1	17165	15935	7815	7695	6865	inactive
snama	1	1.53e5	1.76e5	1.17e5	1.08e5	9355	inactive
Nep7	1	1.80e5	1.55e5	1.73e5	1.69e5	13675	inactive
CG17005	1	1.24e5	1.43e5	74905	87705	18100	inactive
Gclc	1	2.02e5	1.78e5	4.03e5	3.82e5	15205	inactive
JIL-1	1	1.16e5	87260	56210	27485	8125	inactive
TwdlL	1	2.05e5	1.80e5	2.63e5	2.57e5	12575	inactive
p23	1	1.83e5	1.74e5	1.13e5	1.03e5	11180	inactive
Traf6	1	1.32e5	1.36e5	2.77e5	2.28e5	10545	inactive
ens	1	1.26e5	1.83e5	94715	25390	11480	inactive
Prx6c	1	1.95e5	1.64e5	2.61e5	2.72e5	16735	inactive
l(3)05822	1	1.50e5	1.54e5	1.97e5	2.08e5	14745	inactive
CG11458	1	90560	71135	50035	51110	6888	inactive
Tango11	1	63440	47880	52190	61440	7005	active
Tango11	2	60560	43285	69320	82080	6325	active

Called active (from the list above):
gene knocked down	reagent	induced reporter light, run 1, well a	induced reporter light, run 1, well b	control promoter light, run 1, well a	control promoter light, run 1, well b	uninduced reporter light, run 1, well a	activity call
Tango11	1	63440	47880	52190	61440	7005	active
Tango11	2	60560	43285	69320	82080	6325	active
